Measured values reported in CN111057148A.
Numbering of substitutions follows the chain as printed. Results are given in words; binding and its absence hold for the method and conditions named. Some entries that bind do so weakly or less than the wild type.

The chains behind the UniProt entries cited, without tags or fusion partners. Residues count along the entry.
UniProt P02769, residues 25-607: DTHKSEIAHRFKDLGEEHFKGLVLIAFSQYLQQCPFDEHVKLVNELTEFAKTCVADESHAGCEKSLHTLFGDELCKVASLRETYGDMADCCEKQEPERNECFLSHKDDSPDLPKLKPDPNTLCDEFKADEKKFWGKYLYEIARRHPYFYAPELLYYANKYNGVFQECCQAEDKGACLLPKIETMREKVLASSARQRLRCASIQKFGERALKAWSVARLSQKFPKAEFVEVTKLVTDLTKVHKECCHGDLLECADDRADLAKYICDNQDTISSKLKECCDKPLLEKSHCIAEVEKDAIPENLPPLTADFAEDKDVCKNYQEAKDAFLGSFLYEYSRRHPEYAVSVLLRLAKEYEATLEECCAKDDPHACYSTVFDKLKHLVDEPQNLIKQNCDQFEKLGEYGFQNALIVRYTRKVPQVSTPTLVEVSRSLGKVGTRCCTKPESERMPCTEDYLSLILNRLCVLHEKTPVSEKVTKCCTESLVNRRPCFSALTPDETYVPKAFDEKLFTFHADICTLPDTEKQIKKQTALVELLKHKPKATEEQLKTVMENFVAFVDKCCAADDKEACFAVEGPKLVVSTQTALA

B1: 单域抗体1C6 (VHH, not shown: small tags and cut ends)
VHH: QVQLQESGGGSVQAGGSLRLSCVVSGYAYSTNYMGWFRQAPGKEREGVAVIYTTVGTTYYADSVKGRFTISQDNAKNTVSLQMNSLQPEDTAMYYCAAVRRPWRLDSLDPSSFRYWGQGTQVTVSS
B2: 单域抗体1D6 (VHH, not shown: small tags and cut ends)
VHH: B1 VHH with S85G
B3: 2D6的人源Fc融合重组单域抗体 (Fc fusion, 人源 (human), not shown: a dimerising Fc or GST; small tags and cut ends)
chain: QVQLQESGGGSVQTGGSLRLSCAASGNSDGAWSMGWFRQAPGKEREGVAALYVFTGITYYAGSVKGRFTISQDKAKNTVYLQMNSLKPEDTAMYYCAAGTAFPTLNRNKYNYWGQGTQVTVSS

How the values were obtained:
牛血清白蛋白(BSA) (牛 (bovine)) [1] = biological target: 牛血清白蛋白(BSA) (牛 (bovine)) (UniProt P02769); test: ELISA, BSA coated 100 ng/100 µL, E. coli-expressed VHH, HRP anti-HA detection, OD450
[2] = biological target: 生物素标记的BSA蛋白(BSA-Biotin) (牛 (bovine)) (UniProt P02769); test: ELISA of crude periplasmic extract on BSA-Biotin captured by neutravidin; positive = OD450 more than 5x control well
牛血清白蛋白(BSA) (牛 (bovine)) [3] = biological target: 牛血清白蛋白(BSA) (牛 (bovine)) (UniProt P02769); test: ELISA, BSA coated on plate, human Fc fusion VHH, HRP anti-human Fc detection, OD450

binding (牛血清白蛋白(BSA) (牛 (bovine)) [1]) | binding [2] | binding (牛血清白蛋白(BSA) (牛 (bovine)) [3]) | Binder
binds | binds |  | B1
binds | binds |  | B2
 |  | binds | B3
